From publication PMC10500059, “Allosteric activation of RhlB by RNase E induces partial duplex opening in substrate RNA” (Frontiers in Molecular Biosciences, 2023)
Construct, isoform or probe ends are uncertain for at least one entry. For some of these results: No signal at the amounts used counts as a negative. For some of these results: Where a protein sequence is shown, tags need not be part of it.

Tests used:
RhlB (Escherichia coli) [1] = molecular target: T1, RhlB (Escherichia coli) (UniProt P0A8J8); test: NMR (13C HSQC titration); conditions: no ATP, uniform intensity loss, no shift changes; NMR: 150 mM KCl, 25 mM Tris/HCl, 5 mM DTT, 4.5 mM MgCl2, pH 8.3, 288 K, 100 µM RNA; recombinant protein; label: none (1H titration), 21 nt strand 13C,15N for HSQC; letters put together from the description
T1 sequence (looked up, limits assumed): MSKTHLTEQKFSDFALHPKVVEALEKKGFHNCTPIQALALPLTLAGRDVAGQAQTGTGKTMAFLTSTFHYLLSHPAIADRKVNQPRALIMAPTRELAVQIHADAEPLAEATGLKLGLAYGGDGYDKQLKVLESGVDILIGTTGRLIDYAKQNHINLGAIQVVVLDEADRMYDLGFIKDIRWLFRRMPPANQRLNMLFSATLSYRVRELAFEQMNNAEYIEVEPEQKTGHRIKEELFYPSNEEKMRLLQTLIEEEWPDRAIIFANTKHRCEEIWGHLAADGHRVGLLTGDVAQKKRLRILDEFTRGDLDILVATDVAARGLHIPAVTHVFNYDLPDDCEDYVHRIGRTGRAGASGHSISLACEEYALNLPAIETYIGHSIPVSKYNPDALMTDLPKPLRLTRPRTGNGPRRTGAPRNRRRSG

RhlB + RNase E (694-790) [2] = test: NMR (13C HSQC titration); conditions: no ATP, nt U16-U21 of 21 nt strand become unpaired; NMR: 150 mM KCl, 25 mM Tris/HCl, 5 mM DTT, 4.5 mM MgCl2, pH 8.3, 288 K, 100 µM RNA; recombinant protein; label: none (1H titration), 21 nt strand 13C,15N for HSQC; letters put together from the description
[3] = molecular target: T2, RNase E (628-843) (Escherichia coli) (UniProt P21513); test: NMR (1H imino titration); conditions: 4.5 mM Mg2+; NMR: 150 mM KCl, 25 mM Tris/HCl, 5 mM DTT, 4.5 mM MgCl2, pH 8.3, 288 K, 100 µM RNA; recombinant protein; residues 628-843; protein details: N-terminal 6xHis-TEV, tag cleaved; label: none (1H titration), 21 nt strand 13C,15N for HSQC; letters put together from the description
T2 sequence (looked up): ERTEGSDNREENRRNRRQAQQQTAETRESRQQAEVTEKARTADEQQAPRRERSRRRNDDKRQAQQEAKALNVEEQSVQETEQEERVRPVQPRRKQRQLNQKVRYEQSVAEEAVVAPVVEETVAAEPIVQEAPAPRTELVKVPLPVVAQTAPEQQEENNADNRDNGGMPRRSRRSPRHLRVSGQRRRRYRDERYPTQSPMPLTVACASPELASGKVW

[4] = molecular target: T3, RNase E (694-790) (Escherichia coli) (UniProt P21513); test: NMR (1H imino titration); conditions: 4.5 mM Mg2+; NMR: 150 mM KCl, 25 mM Tris/HCl, 5 mM DTT, 4.5 mM MgCl2, pH 8.3, 288 K, 100 µM RNA; recombinant protein; residues 694-790; label: none (1H titration), 21 nt strand 13C,15N for HSQC; letters put together from the description
T3 sequence (looked up): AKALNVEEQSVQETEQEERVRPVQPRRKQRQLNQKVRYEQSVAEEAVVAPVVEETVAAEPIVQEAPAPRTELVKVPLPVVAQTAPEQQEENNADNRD

RhlB (Escherichia coli) [5] = molecular target: T1, RhlB (Escherichia coli); test: NMR (1H imino titration); conditions: no ATP, 4.5 mM Mg2+; NMR: 150 mM KCl, 25 mM Tris/HCl, 5 mM DTT, 4.5 mM MgCl2, pH 8.3, 288 K, 100 µM RNA; recombinant protein; label: none (1H titration), 21 nt strand 13C,15N for HSQC; letters put together from the description
RhlB + RNase E (628-843) = test: NMR (1H imino titration); conditions: no ATP, 4.5 mM Mg2+; NMR: 150 mM KCl, 25 mM Tris/HCl, 5 mM DTT, 4.5 mM MgCl2, pH 8.3, 288 K, 100 µM RNA; recombinant protein; label: none (1H titration), 21 nt strand 13C,15N for HSQC; letters put together from the description
RhlB + RNase E (694-790) [6] = test: NMR (1H imino titration); conditions: no ATP, 4.5 mM Mg2+; NMR: 150 mM KCl, 25 mM Tris/HCl, 5 mM DTT, 4.5 mM MgCl2, pH 8.3, 288 K, 100 µM RNA; recombinant protein; label: none (1H titration), 21 nt strand 13C,15N for HSQC; letters put together from the description

## UAGUAACUAAAACAUUAAAUU / AAUUUAAUGUUUU [5'-OV duplex]
RhlB (Escherichia coli) [1]
  binding result: binds
RhlB + RNase E (694-790) [2]
  binding result: binds
[3]
  Kd: 163 µM
[4]
  binding result: no binding
RhlB (Escherichia coli) [5]
  Kd: 46.6 µM
RhlB + RNase E (628-843)
  Kd: 5.1 µM
RhlB + RNase E (694-790) [6]
  Kd: 14.5 µM
